Data from the supplement of paper PMC13380429.

Key:
Settings in all cases: 72 h
Vero E6 [1] = test: cell viability relative to DMSO; higher = less toxic
U2OS [2] = test: as above
HepG2 [3] = test: as above
Caco-2 [4] = test: as above
Vero E6 [5] = test: drug sensitivity score (DSS) for viability; higher = more toxic; extreme values may be limits of the assay
U2OS [6] = test: as above
HepG2 [7] = test: as above
Caco-2 [8] = test: as above
Vero E6 [9] = test: relative viability EC50 (midpoint between 100% and the lowest measured viability); higher = less toxic
U2OS [10] = test: as above
HepG2 [11] = test: as above
Caco-2 [12] = test: as above

O=C(O)C1=C[C@@H](O)[C@@H](O)[C@H](O)C1 [shikimic-acid]
cell viability [%]
Settings	1 nM	10 nM	100 nM	1000 nM	10000 nM
Caco-2 [4]	90.7	96.7	102	94.4	97.2
HepG2 [3]	100	95.5	103	92.8	109
U2OS [2]	95.6	100	95.1	98.5	94.7
Vero E6 [1]	97.9	94.4	101	95.8	106

Settings	drug sensitivity score	relative viability EC50 [µM]
Caco-2 [8]	0	–
Caco-2 [12]	–	> 10
HepG2 [7]	0	–
HepG2 [11]	–	> 10
U2OS [6]	0	–
U2OS [10]	–	> 10
Vero E6 [5]	0	–
Vero E6 [9]	–	> 10
